PubChem BioAssay AID1508597 | Cure First, 2020
Test: 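Knock-downs altering ovarian cancer cell survival with or without PARP inhibitor rucaparib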 (primary screen). Cells: human ovarian carcinoma lines grown from tumours: OCI-P5x (papillary serous) and OCI-C5x (clear cell). Reagent: siRNA pool against human genes, 1.25 pmol siRNA per well. Timing: 72 h or 96 h, depending on the cell culture. Challenge: rucaparib 20 µM (about IC30) or vehicle, present until read-out. Rucaparib or vehicle: Rucaparib. Cell line: OCI-C5x (clear cell). Read-out: 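ATP luminescence measured at 72 or 96 h according to the culture, then normalised and expressed as percent viability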. Scale: viability, normalised: higher = more viable cells remaining. Hit rule: 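a well counts as a hit if its normalised viability is under 80 percent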. Meaning of the calls: active = viability under 80%; inactive = viability 80% or more.
Shown is an unselected part of the about 2,100 reagents, under one of the conditions tested. 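Calls flag viability under 80% in either arm, not effects specific to rucaparib; the reference for percent is not stated.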 Some reagents were tested in more than one well and are listed for each. The record does not give: the 100% reference.

The first 5 records as a preview:
Gene,PubChem SID,technical replicate,"viability, normalised (%)",Call
SAP130 (Sin3A associated protein 130),SID405527271,1,22.7,active
SAP130 (Sin3A associated protein 130),SID405527271,2,23.6,active
SAP130 (Sin3A associated protein 130),SID405527271,3,22.9,active
KAT5 (lysine acetyltransferase 5),SID405526926,1,42.9,active
KAT5 (lysine acetyltransferase 5),SID405526926,2,32.1,active

The listing, repeating the preview:
Gene,PubChem SID,technical replicate,"viability, normalised (%)",Call
SAP130 (Sin3A associated protein 130),SID405527271,1,22.7,active
SAP130 (Sin3A associated protein 130),SID405527271,2,23.6,active
SAP130 (Sin3A associated protein 130),SID405527271,3,22.9,active
KAT5 (lysine acetyltransferase 5),SID405526926,1,42.9,active
KAT5 (lysine acetyltransferase 5),SID405526926,2,32.1,active
KAT5 (lysine acetyltransferase 5),SID405526926,3,48.3,active
RBL1 (RB transcriptional corepressor like 1),SID405527235,1,57.7,active
RBL1 (RB transcriptional corepressor like 1),SID405527235,2,39.8,active
RBL1 (RB transcriptional corepressor like 1),SID405527235,3,41.3,active
PIK3C2B,SID405527514,1,70.1,active
PIK3C2B,SID405527514,2,68.5,active
PIK3C2B,SID405527514,3,63.9,active
GUK1 (guanylate kinase 1),SID405527842,1,47.7,active
GUK1 (guanylate kinase 1),SID405527842,2,32.8,active
GUK1 (guanylate kinase 1),SID405527842,3,63,active
GNRHR (gonadotropin releasing hormone receptor),SID405526439,1,42.5,active
GNRHR (gonadotropin releasing hormone receptor),SID405526439,2,34.6,active
GNRHR (gonadotropin releasing hormone receptor),SID405526439,3,37.6,active
PELO (pelota mRNA surveillance and ribosome rescue factor),SID405527134,1,31.4,active
PELO (pelota mRNA surveillance and ribosome rescue factor),SID405527134,2,28,active
PELO (pelota mRNA surveillance and ribosome rescue factor),SID405527134,3,24.4,active
IFI6 (interferon alpha inducible protein 6),SID405526887,1,26.5,active
IFI6 (interferon alpha inducible protein 6),SID405526887,2,24,active
IFI6 (interferon alpha inducible protein 6),SID405526887,3,27.5,active
PET117 (PET117 cytochrome c oxidase chaperone),SID405527136,1,41.6,active
PET117 (PET117 cytochrome c oxidase chaperone),SID405527136,2,42.4,active
PET117 (PET117 cytochrome c oxidase chaperone),SID405527136,3,41.1,active
PRKCQ (protein kinase C theta),SID405527496,1,97.2,inactive
PRKCQ (protein kinase C theta),SID405527496,2,91.1,inactive
PRKCQ (protein kinase C theta),SID405527496,3,82.1,inactive
INSR (insulin receptor),SID405527394,1,50.4,active
INSR (insulin receptor),SID405527394,2,70.5,active
INSR (insulin receptor),SID405527394,3,50.3,active
PDE6D (phosphodiesterase 6D),SID405526697,1,62.9,active
PDE6D (phosphodiesterase 6D),SID405526697,2,45.1,active
PDE6D (phosphodiesterase 6D),SID405526697,3,42.9,active
"POLA1 (DNA polymerase alpha 1, catalytic subunit)",SID405526483,1,51.9,active
"POLA1 (DNA polymerase alpha 1, catalytic subunit)",SID405526483,1,75.3,active
"POLA1 (DNA polymerase alpha 1, catalytic subunit)",SID405526483,2,68.7,active
"POLA1 (DNA polymerase alpha 1, catalytic subunit)",SID405526483,2,73.4,active
"POLA1 (DNA polymerase alpha 1, catalytic subunit)",SID405526483,3,56.6,active
"POLA1 (DNA polymerase alpha 1, catalytic subunit)",SID405526483,3,68,active
